# Data as given in PubChem BioAssay AID2417 (National Center for Advancing Translational Sciences (NCATS), 2010).
# In all, about 140,000 compounds went through this assay and about 4,300 (3.1%) were called active. The inconclusive results got no clear call from the source; some entries with a clear call stand among them for comparison.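 Rule for the calls: active = readout at or below -70, meaning at least 70% loss of cells showing the perinucleolar compartment, a nuclear body marking cancer cells; inconclusive = readout between -30 and a set limit; inactive = the rest.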
# Assay: High Content Assay for Compounds that inhibit the Assembly of the Perinucleolar Compartment;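 note: plate controls were DMSO wells for no effect and camptothecin positive control wells for full effect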
# Conditions: PC3M PTB-GFP, PNC prevalence imaging, 16 h; at 10 µM; hits give low values
# Summary of the method: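 Compounds are pinned in duplicate onto adhered PC3M cells stably expressing GFP-tagged PTB and incubated 16 h at 37 C. Cells are then fixed, nuclei stained with Hoechst, and PNC-positive cells counted.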
row,SMILES,"activity change (PNC), negative = inhibition"
1,CC1CCCC(NC(=O)Nc2cccs2)C1C (stereo not drawn),inconclusive: -37.8%
2,Cc1cc(C)nc(N/N=C/C=C/c2ccccc2)n1,active: -104%
3,Cc1c(C(=O)Nc2ccc(Cl)cc2)c2ccccn2c1CCc1ccncc1,active: -84.7%
4,CCOC(=O)CSc1nnc(-c2ccoc2C)n1-c1ccc(C)cc1,active: -100%
5,O=S(=O)(Nn1cnnc1)c1ccccc1Cl,inconclusive: -30.6%
6,O=C(N/C=N/OCc1cccc(C(F)(F)F)c1)N1OC[C@@H]2COc3ccc4ccccc4c3[C@@H]21,inconclusive: -38.4%
7,CC(C)C(=O)NC(=S)Nc1ccc(S(=O)(=O)NC(C)(C)C)cc1,active: -107%
8,CN(C)C(CNC(=O)CN1C(=O)NC2(CCc3ccccc32)C1=O)c1ccco1 (stereo not drawn),inconclusive: -50.6%
9,CCOC(=O)c1c(C)n(OCc2ccccc2)c2ccc3c(no[n+]3[O-])c12,active: -80%
10,O=C1COC(c2ccccc2)C2CCCCN12 (stereo not drawn),inconclusive: -31.3%
11,Cc1ccc(S(=O)(=O)N2c3ccccc3OCC2c2ccccc2)cc1 (stereo not drawn),active: -100%
12,Cc1c(NC(=S)NC(=O)C(C)(C)C)cccc1[N+](=O)[O-],inconclusive: -32.6%
13,Cc1cc(NC(=O)CSc2nnc3c(C)cc4cc(C)c(C)cc4n23)no1,inconclusive: -66.1%
14,O=C(O)CCC(=O)c1c[nH]c2ccccc12,inconclusive: -42.7%
15,O=C(C1CCN(S(=O)(=O)c2cccc3nsnc23)CC1)N1CC=C(c2ccccc2)CC1,inconclusive: -35.5%
16,Cc1ccccc1-c1nc(CN2CCC(C(=O)NCc3cccs3)CC2)c(C)o1,inactive: 44.3%
17,O=C(N/N=C/c1c[nH]c2ccccc12)c1[nH]c2ccc(Br)cc2c1-c1ccccc1,active: -112%
18,O=S(=O)(NCc1ccccc1)c1cccc2cccnc12,inconclusive: -33.1%
19,O=C(CNC(=S)N(CCCN1CCOCC1)Cc1cccs1)NCCN1CCOCC1,inactive: -14.3%
20,COc1cc(C2C(C#N)=C(N)OC3=C2C(=O)CC(C)(C)C3)ccc1OC(=O)N1CCOCC1 (stereo not drawn),inactive: -19.8%
21,Cc1ccc(S(=O)(=O)N2CCCCC2)cc1C(=O)Nc1ncn[nH]1,inactive: 20.2%
22,Fc1ccc(CSc2ncnc3c2oc2ccccc23)cc1,inactive: 48.8%
23,CC1=CC(=O)c2ccccc2C1=O,inactive: -24.8%
24,Cn1c(=O)n(CC(=O)NC2CCCCC2)c(=O)c2ccccc21,inconclusive: -52.9%

row,SMILES,"activity change (PNC), negative = inhibition"
1,CCCCCOC(=O)c1[nH]c2c(c1C)C(=O)CC(c1ccco1)C2 (stereo not drawn),inactive: -29%
2,O=C(CCN1C(=O)c2ccccc2C1=O)NCc1ccco1,inactive: 16.9%
3,O=C(COC(=O)c1cccs1)Nc1ccccc1,inconclusive: -61.6%
4,Cc1ccnc(NC(=O)c2sc3cc(Cl)ccc3c2Cl)c1,inconclusive: -65.1%
5,CCC(C)c1ccc(NC(=S)NCc2cccnc2)cc1 (stereo not drawn),inactive: -13%
6,CSc1ccc(-c2nc3cnccn3c2Nc2ccc3c(c2)OCO3)cc1,inconclusive: -42.7%
7,CCNc1ccc(C(=O)OCC(=O)NCc2ccc(C)cc2)cc1[N+](=O)[O-],inconclusive: -36.2%
8,COC(=O)c1cccc(NC(=S)NCc2ccc(Cl)cc2)c1,inactive: 21%
9,CC(C)(C)C(=O)Nc1ccc(C(=O)N/N=C/c2ccccc2OC(=O)c2ccccc2)cc1,inactive: 116%
10,Clc1ccc(CNc2ccc(CNc3ncn[nH]3)cc2)cc1,inconclusive: -30.4%
11,CCOC(=O)C(=CNc1ccc(NC2=NCC(C)S2)cc1)C(=O)OCC (stereo not drawn),inconclusive: -39.1%
12,O=C(NC(=Nc1ccccc1)N1CCOCC1)Nc1ccccc1,inconclusive: -30.6%
13,C=CCn1c(SCC(=O)NC2CCCCC2)nnc1C1CCCCC1,inactive: 17%
14,COc1ccc(S(=O)(=O)N(C)CC(=O)Nc2ccccc2SC)cc1,inconclusive: -56.1%
15,O=C1C=C(O)CC(c2ccco2)C1 (stereo not drawn),inactive: 53.3%
16,CCOC(=O)C1CCN(S(=O)(=O)c2ccc3c(c2)CCCN3C(C)=O)CC1,inconclusive: -57%
17,CCOC(=O)C1CCCN(Cc2ccccc2F)C1 (stereo not drawn),active: -88.9%
18,Cc1ccc(C)c2[nH]c(=O)c(CCNC(=O)Cc3cccs3)cc12,inconclusive: -73.4%
19,Cc1c(NC(=O)CSc2nc3ccc(Cl)cc3[nH]2)c(=O)n(-c2ccccc2)n1C,inconclusive: -48%
20,O=C(OC1CCOC1=O)c1ccc(S(=O)(=O)N2CCCCCC2)cc1 (stereo not drawn),inactive: 24.7%
21,CC(C)(C)C(=O)N1CCN(c2ccc(Cl)cc2[N+](=O)[O-])CC1,inactive: -1.22%
22,CSc1cccc(NC(=O)C2CCCN(S(=O)(=O)c3ccc(F)cc3)C2)c1 (stereo not drawn),inconclusive: -64%
23,CCOC(=O)C1CCCN(C/C(O)=C(\C#N)c2nc(-c3ccccc3)cs2)C1 (stereo not drawn),inactive: -18.1%
24,CCOc1cc(CNc2ncc(-c3ccc(OC)cc3)n2C)ccc1O,inactive: 50.4%

# Three records picked at random from the list so far:
row,SMILES,"activity change (PNC), negative = inhibition"
5,CCC(C)c1ccc(NC(=S)NCc2cccnc2)cc1 (stereo not drawn),inactive: -13%
1,CCCCCOC(=O)c1[nH]c2c(c1C)C(=O)CC(c1ccco1)C2 (stereo not drawn),inactive: -29%
16,CCOC(=O)C1CCN(S(=O)(=O)c2ccc3c(c2)CCCN3C(C)=O)CC1,inconclusive: -57%

# Looked up above.
# Value of CSc1ccc(-c2nc3cnccn3c2Nc2ccc3c(c2)OCO3)cc1 under activity change (PNC), negative = inhibition: inconclusive: -42.7%
# Value of Cc1ccc(C)c2[nH]c(=O)c(CCNC(=O)Cc3cccs3)cc12 under activity change (PNC), negative = inhibition: inconclusive: -73.4%

# (cont.)

row,SMILES,"activity change (PNC), negative = inhibition"
1,N/C(=N\OC(=O)CC1CCCCC1)c1ccccc1,inactive: -25.3%
2,COCCCNCCCOc1ccc(C)cc1Br,inconclusive: -34.4%
3,CCC1CCCCN1C(=S)Nc1ccc(OC(F)F)cc1 (stereo not drawn),inconclusive: -74.1%
4,CCOC(=O)C1=C(C)NC(=O)C(C#N)C1c1ccco1 (stereo not drawn),inconclusive: -37.6%
5,COc1ccc(/C=N\NC(=O)COc2ccc(Cl)cc2Cl)c(C(=O)O)c1OC,inconclusive: -31.9%
6,O=C(Cn1nnc2c(cnn2-c2ccccc2)c1=O)N1CCN(c2ccccc2F)CC1,inconclusive: -30.4%
7,CC(=O)c1c(C)[nH]c(C(=O)OC2CCOC2=O)c1C (stereo not drawn),inconclusive: -57.5%
8,CCN1CCN(CCNC(=O)C2CCN(Cc3nc(-c4ccc(Cl)cc4)oc3C)CC2)CC1,inactive: 6.01%
9,COc1ccc(OC)c(C(=O)c2ccc(C(=O)Nc3ccc4ccccc4c3)cc2)c1,inconclusive: -62.3%
10,Cc1nnc(N2CCOCC2)c2nn(-c3cccc(Cl)c3)c(C)c12,inconclusive: -57.7%
11,O=S(=O)(Nc1ccn(-c2ccccc2)n1)c1ccc(Br)cc1,inconclusive: -34.5%
12,c1ccc(C2c3c(ccc4ccccc34)Oc3ncn4nc(-c5ccco5)nc4c32)cc1 (stereo not drawn),inconclusive: -35.5%
13,Cc1ccc(SCC(=O)NCCCN2CCOCC2)cc1,inconclusive: -41.7%
14,OCCNc1ncnc2c1ncn2Cc1ccccc1,inconclusive: -49.2%
15,CC(=O)N1CCCc2cc(S(=O)(=O)N3CCc4ccccc4C3)ccc21,inconclusive: -31.5%
16,Cc1ccc(NCc2nnc(SCC(N)=O)n2CCc2ccccc2)cc1,inactive: -2.47%
17,Cc1[nH]c(=S)[nH]c(=O)c1CCOc1ccccc1,inactive: 34.7%
18,CC1(C)CC(=O)CC(C2(O)C(=O)N(Cc3ccccc3)c3ccccc32)O1 (stereo not drawn),inconclusive: -30.5%
19,CCC(C)N1C(=O)CCC1C(=O)O (stereo not drawn),inconclusive: -34.2%
20,Cc1cc(NC(=O)c2ccco2)ncc1NC(=O)CCc1ccccc1,inconclusive: -36.8%
21,CC(NC(=O)CN1CCC(C(N)=O)CC1)c1ccccc1 (stereo not drawn),inactive: -7.51%
22,O=C(c1cc2cc(Cl)ccc2oc1=O)N1CCCC1,inactive: 16.9%
23,CCCCNC(=O)c1ccccc1Cl,inactive: -21.9%
24,COc1ccc(CCN(C)C(=O)CN2C(=O)c3ccccc3S2(=O)=O)cc1OC,inconclusive: -77.6%

row,SMILES,"activity change (PNC), negative = inhibition"
1,CCOC(=O)c1sc(NC(=O)c2c(OC)cccc2OC)nc1C,inconclusive: -39.7%
2,CCCc1cc(C(=O)Cc2nc3ccccc3s2)c(O)cc1O,inconclusive: -37.3%
3,CC1CCN(Cc2ccc(NC(=O)CC3Oc4ccccc4NC3=O)cc2)CC1 (stereo not drawn),inactive: 48%
4,COC(=O)c1sc(=S)n(-c2ccc(Cl)cc2)c1C,inconclusive: -61.9%
5,CCOC(=O)c1cnn(CCOC(=O)c2cccs2)c1NC(=O)c1cccs1,inconclusive: -60.9%
6,CC(C)CCNC(=O)NC(=O)COC(=O)/C=C/c1cnc2ccccc2n1,inactive: -22.8%
7,Cc1ccccc1CSc1n[nH]c(NS(=O)(=O)c2ccccc2)n1,inactive: -21.6%
8,Nc1cc(=O)[nH]c(SCC(=O)NCC2CCCO2)n1 (stereo not drawn),inconclusive: -34.9%
9,COc1ccc(-n2nnnc2SCC(=O)Nc2ccc3c(c2)OCCO3)cc1OC,inconclusive: -50%
10,COc1ccccc1C(=O)Nc1ccc2nc(SCC(=O)N(C)C)sc2c1,active: -114%
11,Brc1ccccc1-c1nnc(CSc2nncn2-c2ccccc2)o1,inconclusive: -30.1%
12,COc1ccc2nc(C)cc(SCC(=O)Nc3c(C)cccc3C)c2c1,inconclusive: -41.6%
13,COc1ccc(/C=N/NC(=O)CNC(=O)c2cccs2)cc1,inconclusive: -53.1%
14,O=C1/C(=C/c2ccc(N3CCOCC3)o2)SC(=Nc2ccccc2)N1CCc1c[nH]c2ccccc12,inconclusive: -79.7%
15,C=CCc1ccc(OCCCOc2ccc(C)cc2OC)c(OC)c1,inconclusive: -61.3%
16,CC1CCCCC1NC(=O)c1ccc(CNc2c(N3CCCC3)c(=O)c2=O)cc1 (stereo not drawn),inconclusive: -31.4%
17,CCOC(=O)c1c(NC(=O)CSc2nnc(CNc3ccc(OC)cc3)n2C)sc(C)c1C,inconclusive: -49.2%
18,CCOC(=O)C1=C(C)Nc2sc(C(=O)c3ccc(OC)cc3)c(N)c2C1c1ccc(C(=O)OC)cc1 (stereo not drawn),inactive: 167%
19,CCN(CC)C(=O)CSc1nnc(-c2ccccc2)n1N,inconclusive: -30.1%
20,Nc1c(C(=O)c2ccccc2)sc2c1c(=O)[nH]c(=O)n2-c1ccccc1,inactive: 54.2%
21,c1ccc(Cc2nnc3sc(-c4ccccn4)nn23)cc1,inconclusive: -52.4%
